# Laboratory results reported in patent publication US20190321431A1, “PREPARATION AND APPLICATION OF Syzygium zeylanicum L. EXTRACT” (Tamkang University, priority 2018, published 2019).
# At least one structure is not confirmed: it was looked up by name or label, or the drawing left a doubt.
# Biological target: Rat alpha-glucosidase
# Experiment: Enzyme activity inhibition test, rat alpha-glucosidase
# Format: biochemical
compound,measurement,value
C[C@H]1O[C@H](O[C@H]2[C@H](O)[C@@H](O)[C@@H](O[C@H]3[C@H](O)[C@@H](O)C(O)O[C@@H]3CO)O[C@@H]2CO)[C@H](O)[C@@H](O)[C@@H]1N[C@H]1C=C(CO)[C@@H](O)[C@H](O)[C@H]1O (some centres unmarked) [Acarbose],IC50,547 ± 2.5 µg/mL
same,Maximum Inhibitory Activity,84 ± 3.4%
